From article PMC2289219 (The Journal of Cell Biology, 1991) come the findings set out here.

Each structure is given as a SMILES string.

The test system of this experiment is Bovine brain ECs. Format: cell-based.

Regarding `CN[C@@H]1C[C@H]2O[C@@](C)([C@@H]1OC)n1c3ccccc3c3c4c(c5c6ccccc6n2c5c31)C(=O)NC4` [staurosporine], the “Effect of protein kinase inhibitors on resistance” value was “quite effective in decreasing resistance”.
